Data: US10092526B2, “Compositions and methods for treating respiratory injury or disease” (University of Pittsburgh—Of the Commonwealth System of …, priority 2013, dated 2018)
At least one compound was matched to its structure with a doubt left.

Test system: H1N1
Test: H1N1 influenza induced lung injury (Example 4)
Assay type: in vivo, mice
Settings: 30 ug/ml in drinking water

Compound: c1ccc(-c2ccc(CNCCNCc3ccc(-c4ccccn4)cc3)cc2)nc1 [Compound 005]
- survival rate (H1N1 10^5 PFU/mouse i.t., 9 d, vs untreated infected mice): significantly increased
- lavage protein concentration (H1N1, FIG. 7A): decreased
- lavage cell counts (H1N1, FIG. 7B): decreased
- cell infiltrates (H&E staining) (H1N1, FIG. 8B): fewer cell infiltrates
- elastance (H1N1, day 5, FIG. 6B): reduced
- compliance (H1N1, day 5, FIG. 6C): increased
- lung edema (photographs of lungs) (H1N1, vs vehicle only mice, FIG. 8A): less lung edema
